Some of the results follow. These are further read-outs of the screen, such as a control signal, another cell line or another target. No call is given for them. Most of these compounds were active or inconclusive in the main read-out, so they are no random draw. The note in brackets gives the kind of curve behind each potency; many fits are weak.
Assay: qHTS Assay to Find Inhibitors of Chronic Active B-Cell Receptor Signaling
Settings: ABC-DLBCL IkBa-CBG/CBR reporter, luminescence ratio (green luciferase fused to IkBa over red control in TMD8 lymphoma cells), 4 h
Outline: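 TMD8 ABC-DLBCL cells carrying doxycycline-inducible green luciferase fused to IkappaBalpha plus unfused red luciferase were exposed to compounds (up to 46 uM) for 4 hrs at 37C. Activity came from the overlap-corrected green/red luminescence ratio.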

[1] = measured here: CBR red luminescence, cell number
[2] = measured here: IkBa-CBG green luminescence

Compound | AC50 [1] | AC50 [2]
CC(=O)Nc1ccc(OC(=O)c2cccs2)cc1 | 29.1 µM [rising, single point] | 
O=[N+]([O-])c1cccnc1NCCc1ccccc1 | 5.01 µM [rising, single point] | 
COc1ccc(/C=C/C(=O)c2ccccc2)cc1Cn1nnc2ccccc21 | 7.31 µM [falling, partial curve] | 29.1 µM [rising, single point]
O=C1CCCN1CCCNS(=O)(=O)c1ccc(Cl)c(C(=O)N2CCOCC2)c1 | 32.6 µM [rising, single point] | 
Cc1ccc(CNC(=O)C(=O)NCCC2CCCCN2S(=O)(=O)c2ccc(C)cc2)cc1 (stereo unspecified) | 32.6 µM [falling, single point] | 
CCN1C(=O)C2(Nc3ccccc3-c3nc4ccccc4n32)c2cc(OC)ccc21 (stereo unspecified) | 35.5 µM [falling, single point] | 
O=C(CCCN1C(=O)/C(=C/c2ccccc2Cl)SC1=S)NNC(=O)c1ccccc1Cl | 2.31 µM [falling, full curve, poor fit] | 
O=C(COC(=O)/C=C/c1ccc2c(c1)OCO2)NC1CCS(=O)(=O)C1 (stereo unspecified) | 35.5 µM [falling, single point] | 
COc1ccc(Cl)cc1NC(=O)CN(C)C(=O)CNC(=O)C12CC3CC(CC(C3)C1)C2 | 29.1 µM [falling, single point] | 
Cn1c(CN2CCN(CC#N)CC2)c(C#N)c2ccccc21 | 4.11 µM [falling, single point] | 
COC(=O)c1ccc(C2C(C(=O)c3cc4ccccc4o3)=C(O)C(=O)N2CCCN(C)C)cc1 (stereo unspecified) | 22.4 µM [falling, single point] | 
O=C(O)c1ccc(N2CCCCCC2)c(N2C(=O)c3ccccc3C2=O)c1 | 29.1 µM [rising, partial curve, poor fit] | 
CC(C)(Oc1ccc(Cl)cc1)C(=O)O/N=C(\N)c1ccncc1 | 8.91 µM [rising, partial curve] | 
CCN(CC(=O)Nc1ccc(OC)cc1)C(=O)CSCc1c(C)noc1C | 0.731 µM [rising, partial curve, poor fit] | 
COc1ccc(/C=N\NC(=O)c2ccc(F)cc2)cc1COc1cc(F)ccc1[N+](=O)[O-] | 15.8 µM [falling, single point] | 
CN(C)c1nc(C(F)(F)F)cc(=O)[nH]1 | 20 µM [rising, partial curve, poor fit] | 
CO/N=C/C(=N\Nc1ccccc1)C(=O)c1ccccc1 | 3.16 µM [rising, full curve, poor fit] | 
O=C/C=C/c1c(-c2ccccc2)cc2oc3ccccc3cc1-2 | 12.6 µM [falling, single point] | 
COc1ccc2nc(/N=C(\N)NC(=O)C(C)(C)C)nc(C)c2c1 | 0.501 µM [rising, full curve, poor fit] | 
COc1ccc(/C=N/NC(=O)c2cccnc2)cc1COc1ccc([N+](=O)[O-])c(C)c1 | 35.5 µM [falling, single point] | 
OCCNc1nc2ccccc2n1-c1ccccc1 | 32.6 µM [falling, single point] | 

Compound | AC50 [1] | AC50 [2]
Cc1ccc2c(Cl)c(C(=O)NC3CC3)sc2c1 | 0.1 µM [rising, full curve, poor fit] | 
Cc1ccc(NC(=O)COc2ccc(/C=N/NC(=O)CSCc3ccccc3)cc2)cc1 | 9.2 µM [rising, partial curve, poor fit] | 
CC(C)C(=O)Nc1c(-c2ccccc2F)c(=O)c2ccccc2n1C | 6.31 µM [falling, single point] | 
CC(C)COC(=O)/C(C#N)=C/c1c[nH]c2ccccc12 | 0.206 µM [rising, full curve, poor fit] | 
O=C(COC(=O)c1ccc(F)cc1F)NC(=O)Nc1ccc2c(c1)OCCO2 | 0.651 µM [falling, single point] | 
N#C/C(=C(/O)c1ccc(Cl)c([N+](=O)[O-])c1)c1nc2ccccc2[nH]1 | 2.51 µM [falling, full curve, poor fit] | 
Oc1[nH]c2ccccc2c1N=Nc1c(F)c(F)c(Cl)c(F)c1F | 17.8 µM [falling, single point] | 
C=CCn1c(SCC(=O)c2ccc(CNC(C)=O)o2)nc2scc(C3CC3)c2c1=O | 14.6 µM [rising, partial curve] | 
Oc1ccccc1NCC(O)Cn1ccc2ccccc21 (stereo unspecified) | 2.24 µM [falling, full curve] | 
COc1cccc(C2c3[nH]c4ccccc4c3C[C@H]3C(=O)N(C4CC4)CC(=O)N23)c1 (stereo partly specified) | 4.47 µM [falling, partial curve] | 
COc1ccccc1NC(=O)c1cccc(N2C(=O)C3C4C=CC(C4)C3C2=O)c1 (stereo unspecified) | 7.94 µM [falling, partial curve] | 
COc1ccc(C(=O)Nc2sc(C)c(C)c2CN2CC(C)OC(C)C2)cc1 (stereo unspecified) | 0.0366 µM [falling, full curve, poor fit] | 
Cc1nn(C(C)(C)C)c(OC(=O)c2cccs2)c1S(=O)(=O)c1ccccc1 | 29.1 µM [falling, single point] | 
CCC/C(C)=N\Nc1nc2c(c(=O)n(C)c(=O)n2C)n1C | 7.94 µM [falling, partial curve, poor fit] | 
COC(=O)Cc1[nH]nc2c1C(c1cccc(OC)c1OC)C(C#N)=C(N)O2 (stereo unspecified) | 12.6 µM [falling, partial curve] | 
CC(C)(C)c1ccccc1NC(=O)c1ccc2c(c1)SC1=NS(=O)(=O)CCN12 | 0.1 µM [rising, full curve, poor fit] | 
COC(=O)c1c(C)noc1-c1cc(C)on1 | 16.4 µM [rising, partial curve, poor fit] | 
COC(=O)c1c(NC(=O)CSc2ccccc2N)sc(C)c1C | 15.8 µM [falling, partial curve, poor fit] | 
CCCCn1c(=N)n(CC(=O)c2ccc(OC)cc2)c2ccccc21 | 11.2 µM [falling, partial curve] | 
O=S(=O)(c1ccccc1)c1nc(Nc2cccc(O)c2)sc1Cl | 11.6 µM [falling, partial curve, poor fit] | 
O=C(Nc1ccc(N2CCN(C(=O)c3cccs3)CC2)cc1)c1ccc([N+](=O)[O-])o1 |  | 3.55 µM [falling, partial curve, poor fit]

Compound | AC50 [1] | AC50 [2]
CCC(C(=O)NCC1CCCO1)n1nc(C)c2sc3ccccc3c2c1=O (stereo unspecified) | 2.51 µM [rising, partial curve, poor fit] | 
CCOC(=O)c1nc(C)sc1-c1ccnn1S(=O)(=O)c1cccc(Cl)c1 | 0.1 µM [falling, full curve, poor fit] | 
CCOC(=O)[C@@H]1[C@H]2COc3ccccc3[C@H]2N2C(=O)N(c3ccc(Cl)cc3)C(=O)[C@]12C | 22.4 µM [falling, single point] | 
CNC(=O)COC(=O)c1ccc(NC(=O)CC#N)cc1 | 7.31 µM [falling, partial curve, poor fit] | 
C/C(=N\NC(=O)C1COc2ccccc2O1)c1ccccn1 (stereo unspecified) | 18.4 µM [rising, partial curve] | 18.4 µM [falling, single point]
COc1ccc([N+](=O)[O-])cc1N/C(=N/S(=O)(=O)c1ccccc1)c1ccccc1 | 35.5 µM [falling, single point] | 
O=C(Nc1ccc2c(c1)OCCO2)C(=O)c1c[nH]c2ccccc12 | 2 µM [falling, partial curve, poor fit] | 
COc1cc(SC#N)ccc1N=Cc1c(C)[nH]n(-c2cccc3ccccc23)c1=O | 0.631 µM [falling, partial curve, poor fit] | 
CCCCN1CC[C@@H]2C=CC[C@H](C(=O)OC)[C@@H]2C1=O | 25.9 µM [rising, single point] | 
COc1cccc(NC(=O)CSc2nc3n[nH]c(C)c3c(=N)n2-c2cccc(OC)c2)c1 | 7.08 µM [falling, partial curve] | 
COc1cccc(CNC(=O)c2ccc(NS(=O)(=O)c3ccc4[nH]c(=O)[nH]c4c3)cc2)c1 | 32.6 µM [rising, single point] | 
COc1cccc(N/C(C)=C/C(=O)c2ccc(Br)cc2)c1 | 32.6 µM [falling, single point] | 
COc1cc(/C=C/C(=O)OCC(=O)NCc2ccc(F)cc2)ccc1O | 29.1 µM [rising, single point] | 20.6 µM [falling, single point]
COc1ccc(CC(=O)NC(C)c2nnc(SCC(=O)c3ccc(Br)cc3)n2C)cc1 (stereo unspecified) | 29.1 µM [falling, single point] | 29.1 µM [rising, partial curve, poor fit]
CCCCC/C=N/NC(=O)c1[nH]c2ccc([N+](=O)[O-])cc2c1C | 8.91 µM [falling, partial curve] | 
C/C(N)=C(/C#N)C(=O)CSc1nc2ccccc2c(=O)n1Cc1ccc(F)cc1 | 8.91 µM [falling, single point] | 
O=C(NCCN1CCN(c2ccccc2)CC1)Nc1ccccc1Br | 35.5 µM [rising, single point] | 
N#C/C(=C/c1ccc(Br)o1)C(N)=O | 23.1 µM [falling, single point] | 
O=C(Oc1ccccc1/C=C\C(=O)c1cc2ccccc2o1)c1cccc(F)c1 | 0.517 µM [falling, full curve] | 
CNC(=O)CSc1nc2ccccc2c(=O)n1-c1cc(OC)ccc1OC | 3.55 µM [rising, single point] | 

Three compounds already listed, sorted by count of non-hydrogen atoms, descending.
Compound | AC50 [1] | AC50 [2]
CCOC(=O)[C@@H]1[C@H]2COc3ccccc3[C@H]2N2C(=O)N(c3ccc(Cl)cc3)C(=O)[C@]12C | 22.4 µM [falling, single point] | 
COc1ccc([N+](=O)[O-])cc1N/C(=N/S(=O)(=O)c1ccccc1)c1ccccc1 | 35.5 µM [falling, single point] | 
C/C(=N\NC(=O)C1COc2ccccc2O1)c1ccccn1 (stereo unspecified) | 18.4 µM [rising, partial curve] | 18.4 µM [falling, single point]

From PubChem BioAssay AID493014 (National Center for Advancing Translational Sciences (NCATS), 2011)
